These are yes or no findings as the source states them, for the method shown. Binding seen in cells or lysates may run through a third protein. Some results given as binding are weak or reduced against the parent protein; the word gives no strength.
How the values were obtained:
[1] = target: NF-κB p65 (endogenous) (human (endogenous in A549 and A549/DR)) (UniProt Q04206); test: co-IP; A549/DR cell lysate (NP-40 lysis buffer); precleared with protein A agarose, 5 µg anti-p65 antibody or normal rabbit IgG overnight at 4 °C, four washes, Western blot
[2] = target: NF-κB p65 (endogenous) (human (endogenous in A549 and A549/DR)) (UniProt Q04206); test: condition: only in parental A549 cells (not DDP-resistant); co-IP; parental (DDP-sensitive) A549 cell lysate; anti-p65 antibody or normal rabbit IgG overnight at 4 °C, Western blot

Protein sequences, listed by entry. Tags and fused reporters are not part of them.
UniProt Q04206: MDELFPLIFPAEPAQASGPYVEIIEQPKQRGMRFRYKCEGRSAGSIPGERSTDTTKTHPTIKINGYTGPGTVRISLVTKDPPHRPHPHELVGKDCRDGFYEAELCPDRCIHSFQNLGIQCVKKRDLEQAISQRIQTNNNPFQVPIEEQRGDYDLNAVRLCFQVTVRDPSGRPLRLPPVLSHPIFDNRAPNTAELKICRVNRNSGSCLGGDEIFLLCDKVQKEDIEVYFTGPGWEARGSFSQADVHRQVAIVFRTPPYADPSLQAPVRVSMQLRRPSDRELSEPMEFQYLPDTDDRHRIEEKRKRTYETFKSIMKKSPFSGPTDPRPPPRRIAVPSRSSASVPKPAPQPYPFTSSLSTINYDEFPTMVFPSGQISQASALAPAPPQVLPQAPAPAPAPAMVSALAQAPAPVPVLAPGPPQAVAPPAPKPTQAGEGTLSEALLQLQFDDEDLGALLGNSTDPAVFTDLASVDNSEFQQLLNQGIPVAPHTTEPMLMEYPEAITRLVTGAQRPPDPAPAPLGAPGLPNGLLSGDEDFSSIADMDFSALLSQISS
UniProt Q09472: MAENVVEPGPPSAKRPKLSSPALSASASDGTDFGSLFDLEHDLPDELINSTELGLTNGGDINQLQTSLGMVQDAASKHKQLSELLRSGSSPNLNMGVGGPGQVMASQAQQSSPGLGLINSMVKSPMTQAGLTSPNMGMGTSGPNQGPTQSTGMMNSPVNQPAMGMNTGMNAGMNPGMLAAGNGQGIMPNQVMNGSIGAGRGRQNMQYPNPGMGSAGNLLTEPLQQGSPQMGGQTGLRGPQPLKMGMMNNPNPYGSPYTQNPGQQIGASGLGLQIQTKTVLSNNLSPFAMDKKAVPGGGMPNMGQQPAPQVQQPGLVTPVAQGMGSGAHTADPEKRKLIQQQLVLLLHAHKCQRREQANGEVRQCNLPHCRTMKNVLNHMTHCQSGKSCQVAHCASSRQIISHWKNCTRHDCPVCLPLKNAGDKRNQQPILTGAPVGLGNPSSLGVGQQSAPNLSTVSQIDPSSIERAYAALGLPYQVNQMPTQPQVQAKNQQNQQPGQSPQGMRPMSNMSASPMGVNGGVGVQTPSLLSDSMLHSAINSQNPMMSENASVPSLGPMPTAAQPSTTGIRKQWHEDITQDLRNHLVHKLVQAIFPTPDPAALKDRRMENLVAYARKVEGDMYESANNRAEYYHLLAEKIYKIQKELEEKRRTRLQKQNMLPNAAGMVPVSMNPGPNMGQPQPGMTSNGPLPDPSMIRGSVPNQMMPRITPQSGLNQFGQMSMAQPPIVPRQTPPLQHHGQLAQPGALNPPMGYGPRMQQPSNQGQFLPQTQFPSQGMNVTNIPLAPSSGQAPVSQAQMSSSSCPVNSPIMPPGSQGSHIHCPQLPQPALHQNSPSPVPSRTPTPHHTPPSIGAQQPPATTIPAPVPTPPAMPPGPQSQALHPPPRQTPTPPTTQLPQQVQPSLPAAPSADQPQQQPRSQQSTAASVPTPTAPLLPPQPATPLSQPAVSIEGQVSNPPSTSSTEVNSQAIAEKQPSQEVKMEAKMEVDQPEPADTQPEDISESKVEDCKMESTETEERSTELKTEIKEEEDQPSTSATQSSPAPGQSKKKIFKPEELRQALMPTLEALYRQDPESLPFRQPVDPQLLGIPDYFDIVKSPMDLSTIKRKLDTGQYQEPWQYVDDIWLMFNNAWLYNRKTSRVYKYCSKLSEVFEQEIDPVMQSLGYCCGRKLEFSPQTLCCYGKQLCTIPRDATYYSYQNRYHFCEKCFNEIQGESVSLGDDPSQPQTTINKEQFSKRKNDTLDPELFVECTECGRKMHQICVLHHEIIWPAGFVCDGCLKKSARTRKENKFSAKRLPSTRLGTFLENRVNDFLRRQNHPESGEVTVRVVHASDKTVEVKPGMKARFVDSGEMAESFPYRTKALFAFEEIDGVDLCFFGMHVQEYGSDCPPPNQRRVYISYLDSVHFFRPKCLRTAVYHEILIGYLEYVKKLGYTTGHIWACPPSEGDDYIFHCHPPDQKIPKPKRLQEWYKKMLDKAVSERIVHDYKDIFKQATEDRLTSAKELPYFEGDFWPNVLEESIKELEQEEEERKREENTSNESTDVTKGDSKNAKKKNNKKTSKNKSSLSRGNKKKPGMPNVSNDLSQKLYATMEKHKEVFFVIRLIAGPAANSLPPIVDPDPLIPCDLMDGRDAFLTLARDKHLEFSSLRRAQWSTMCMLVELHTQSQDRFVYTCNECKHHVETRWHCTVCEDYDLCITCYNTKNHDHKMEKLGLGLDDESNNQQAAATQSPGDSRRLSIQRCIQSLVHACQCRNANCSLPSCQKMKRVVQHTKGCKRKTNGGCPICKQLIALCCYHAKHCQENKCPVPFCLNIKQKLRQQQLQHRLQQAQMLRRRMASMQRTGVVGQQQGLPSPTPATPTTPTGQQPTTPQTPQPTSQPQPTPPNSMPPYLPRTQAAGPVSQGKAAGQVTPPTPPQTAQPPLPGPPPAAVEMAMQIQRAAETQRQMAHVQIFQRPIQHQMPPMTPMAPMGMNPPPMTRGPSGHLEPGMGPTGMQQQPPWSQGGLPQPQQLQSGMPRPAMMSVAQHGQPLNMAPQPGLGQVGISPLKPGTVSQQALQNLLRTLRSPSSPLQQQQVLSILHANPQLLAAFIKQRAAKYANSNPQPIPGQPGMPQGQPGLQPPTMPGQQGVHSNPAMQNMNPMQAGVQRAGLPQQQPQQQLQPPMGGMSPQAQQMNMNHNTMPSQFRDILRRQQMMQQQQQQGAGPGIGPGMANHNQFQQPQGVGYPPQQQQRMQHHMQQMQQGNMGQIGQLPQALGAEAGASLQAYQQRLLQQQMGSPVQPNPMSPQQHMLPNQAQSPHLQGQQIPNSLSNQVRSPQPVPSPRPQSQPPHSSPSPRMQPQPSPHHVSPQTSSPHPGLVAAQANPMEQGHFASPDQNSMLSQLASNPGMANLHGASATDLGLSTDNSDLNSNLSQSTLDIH

| binding [1] | binding [2] | Substance |
| --- | --- | --- |
| binds | – | DNA-dependent protein kinase catalytic subunit (endogenous) (from UniProt P78527 1-4128) (enzyme) |
| – | no binding | p300 histone acetyltransferase (endogenous) (from UniProt Q09472 1-2414) (enzyme) |

Source: PMC12639660
